Results reported in PMC9751883, “Discovery of new potent lysine specific histone demythelase-1 inhibitors (LSD-1) using structure based and ligand based molecular modelling and machine learning” (RSC Advances, 2022).

How the values were obtained:
[1] = test system: normal human dermal fibroblasts (HDF); experiment: cytotoxicity against normal human dermal fibroblasts; type: cell-based
From the text: However, testing against HDF is aimed at evaluating the selective cytotoxicities of hits.

[2] = test system: neuroblastoma SH-SY5Y cells; experiment: MTT cell viability assay on SH-SY5Y cells; type: cell-based; details: SH-SY5Y dose-response
Protocol: The anticancer effects of captured hits were evaluated against SH-SY5Y (Neuroblastoma, CRL-2266), Panc-1 (pancreatic carcinoma, CRL-1469) and U-87 MG (glioblastoma, HTB-14) cells. Details about growth conditions, cell harvesting and counting are available in ESI Sections SM12–SM14. ^† The cancer killing profiles of tested compounds were evaluated colorimetrically using the Cell Titer Non-Radioactive Cell Proliferation Assay Kit® (Promega, USA) based on the reduction of a yellow tetrazole, 3-(4,5-Dimethylthiazol-2-yl)-2, 5-diphenyl tetrazolium bromide (MTT), to a purple formazan, a process that takes place in the mitochondria of viable cells (details are in ESI Sections SM12–SM14 ^†).[98,99]
As SH-SY5Y cells highly express ATP binding cassette subfamily B member 1 (ABCB1, MDR1, normalized expression, NX: 36.8%),[100] cell resistance were reversed using verapamil (10 μM), which was added with each hit, and incubated with cells for 72 hours for subsequent MTT viability assay.[101,102] Finally, MTT cell proliferation assay results were analysed using GraphPad Prism 8.0 (GraphPad Software, Inc). […] Measurements were repeated in triplicates.
• MTT Cell Proliferation Assay
Inhibitory effect of the hits on SH-SY5Y cells were evaluated by a colorimetric method of CellTiter Non-Radioactive Cell Proliferation Assay Kit® (Promega, USA), based on the reduction of a yellow tetrazole, 3-(4,5-Dimethylthiazol-2-yl)-2, 5-diphenyl tetrazolium bromide (MTT), to a purple formazan, a process that take place in the mitochondria of viable cells.
Briefly, the cells were seeded onto 96-well plates (Greiner, Germany) at a concentration of 2×10^4 cells/well and incubated for 24 hours through which cells are attached to the walls of the wells.
Subsequently, hits under concern were screened on 50 µM and 10 µM concentrations (100 μL/ well). Each concentration was added in triplicates, and every plate contained a control of cells in plain medium. The cells were then incubated at 37 °C for 72 hours. After incubation, the media were aspirated from the wells and replaced by fresh media (100 μL/ well), and 15 µl MTT dye solution. The plates were incubated at 37 °C for four hours, and then 50 μL of solublization/stop solution was added to each well. Optical density (OD) at 560 nm wavelength was recorded one hour later using a 96-well plate reader (GloMax, Promega).
• Reversal of SH-SY5Y resistance by verapamil
As SH-SY5Y cells are highly expressing ATP binding cassette subfamily B member 1 (ABCB1, MDR1) (Normalized expression, NX: 36.8%) 100, cell resistance were reversed using 10 µM concentration of verapamil added with each hit and incubated with cells for 72 hours for subsequent MTT viability assay 101,102.

[3] = in presence of verapamil (10 μM)

Row | SMILES | Hill Slope [2, 3] | further results
1 | N=C(N)c1ccc(OCCCCCCOc2ccc(C(=N)N)cc2I)cc1 [Cpd 304] | – | HS (hill Slope) HDF [1]: 2.23
2 | N=C(N)c1ccc(OCCCCCCOc2ccc(C(=N)N)cc2)cc1 [Hit 288] | 0.28 | –
3 | COc1cccc2c1C(=O)c1c(O)c3c(c(O)c1C2=O)CC(O)(C(C)=NNC(=O)CO)CC3OC1CC(N)C(O)C(C)O1 (stereo not drawn) [Cpd 298] | – | HS (hill Slope) HDF [1]: 0.88
4 | CCCCOCCCNCC(=O)Nc1ccc(S(=O)(=O)c2ccc(NC(=O)CNCCCOCCCC)cc2)cc1 [Hit 287] | 0.64 | –
5 | O=C(NCCCCCCCCCCNC(=O)Nc1cccc(C2=NCCN2)c1)Nc1cccc(C2=NCCN2)c1 [Hit 285] | 0.32 | –
6 | COc1cccc2c1C(=O)c1c(O)c3c(c(O)c1C2=O)CC(O)(C(C)=NNC(=O)CO)CC3OC1CC(N)C(O)C(C)O1 (stereo not drawn) [Hit 298] | – | Hill Slope ([2]; without verapamil): 0.74
7 | N=C(N)c1ccc(OCCCCCCOc2ccc(C(=N)N)cc2I)cc1 [Hit 304] | 0.39 | –
8 | COc1cccc2c1C(=O)c1c(O)c3c(c(O)c1C2=O)C[C@@](O)(C(=O)CO)C[C@@H]3O[C@H]1C[C@H](N)[C@H](O)[C@H](C)O1 [Doxorubicin, reference compound] | – | Hill Slope ([2]; without verapamil): 1.09
9 | O=C(NCCCCCCCCCCNC(=O)Nc1cccc(C2=NCC(O)CN2)c1)Nc1cccc(C2=NCC(O)CN2)c1 (stereo not drawn) [Hit 286] | 0.38 | –
